Results are given in words; binding and its absence hold for the method and conditions named. Binding calls can cover weak binding; strength is not graded here. Tags and fused reporters may be left off the sequences shown. For part of these data: Binding seen in cells or lysates may run through a third protein.
Assays:
[1] = biological target: T1, HopG1 fused to the GAL4 DNA-binding domain (pDEST32::HopG1) (Pseudomonas syringae pv. tomato DC3000) (UniProt Q87W42); experiment: two-hybrid
T1 sequence: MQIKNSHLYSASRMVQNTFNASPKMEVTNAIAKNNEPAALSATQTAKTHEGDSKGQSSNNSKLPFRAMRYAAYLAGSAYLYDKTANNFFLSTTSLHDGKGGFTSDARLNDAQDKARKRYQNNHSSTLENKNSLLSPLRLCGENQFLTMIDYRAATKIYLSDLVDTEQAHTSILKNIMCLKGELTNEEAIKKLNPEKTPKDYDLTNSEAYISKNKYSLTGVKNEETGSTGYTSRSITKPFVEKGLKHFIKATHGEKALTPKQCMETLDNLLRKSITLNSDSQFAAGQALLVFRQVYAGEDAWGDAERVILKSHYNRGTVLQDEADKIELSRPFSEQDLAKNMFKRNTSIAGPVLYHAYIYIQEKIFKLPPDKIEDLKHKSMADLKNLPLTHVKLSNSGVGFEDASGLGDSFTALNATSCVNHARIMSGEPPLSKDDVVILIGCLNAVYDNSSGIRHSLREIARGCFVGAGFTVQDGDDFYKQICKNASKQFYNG

[2] = biological target: AtNHR2B tagged with the green fluorescent protein (AtNHR2B-GFP) (Arabidopsis thaliana); experiment: co-IP
[3] = biological target: AtNHR2B fused to the N-terminal half of EYFP (nEYFP-AtNHR2B) (Arabidopsis thaliana); experiment: split reporter

Question: “AtNHR2B fused to the GAL4 activation domain (pDEST22::AtNHR2B) (from UniProt Q9SW23)” was tested. Which binding [1] did it give?
Answer: binds

B1: HopG1 fused to the flag epitope (HopG1-FLAG) (protein, UniProt Q87W42 1-493)
chain: T1 sequence
Question: How did the binding [2] turn out when B1 was run?
Answer: binds

B2: HopG1 fused to the C-terminal half of EYFP (HopG1-cEYFP) (protein, UniProt Q87W42 1-493)
chain: T1 sequence
Question: Which binding [3] does the source give for B2 here?
Answer: binds

Reference: article doi:10.1101/2021.11.02.466876
